Assay results reported in article PMC12830804.
Like-named read-outs stand apart in the source and are kept apart here. Results are given in words; binding and its absence hold for the method and conditions named. Binding seen in cells or lysates may run through a third protein. Some entries that bind do so weakly or less than the wild type.

Protein sequences, listed by entry. Tags and fused reporters are not part of them.
UniProt O00308: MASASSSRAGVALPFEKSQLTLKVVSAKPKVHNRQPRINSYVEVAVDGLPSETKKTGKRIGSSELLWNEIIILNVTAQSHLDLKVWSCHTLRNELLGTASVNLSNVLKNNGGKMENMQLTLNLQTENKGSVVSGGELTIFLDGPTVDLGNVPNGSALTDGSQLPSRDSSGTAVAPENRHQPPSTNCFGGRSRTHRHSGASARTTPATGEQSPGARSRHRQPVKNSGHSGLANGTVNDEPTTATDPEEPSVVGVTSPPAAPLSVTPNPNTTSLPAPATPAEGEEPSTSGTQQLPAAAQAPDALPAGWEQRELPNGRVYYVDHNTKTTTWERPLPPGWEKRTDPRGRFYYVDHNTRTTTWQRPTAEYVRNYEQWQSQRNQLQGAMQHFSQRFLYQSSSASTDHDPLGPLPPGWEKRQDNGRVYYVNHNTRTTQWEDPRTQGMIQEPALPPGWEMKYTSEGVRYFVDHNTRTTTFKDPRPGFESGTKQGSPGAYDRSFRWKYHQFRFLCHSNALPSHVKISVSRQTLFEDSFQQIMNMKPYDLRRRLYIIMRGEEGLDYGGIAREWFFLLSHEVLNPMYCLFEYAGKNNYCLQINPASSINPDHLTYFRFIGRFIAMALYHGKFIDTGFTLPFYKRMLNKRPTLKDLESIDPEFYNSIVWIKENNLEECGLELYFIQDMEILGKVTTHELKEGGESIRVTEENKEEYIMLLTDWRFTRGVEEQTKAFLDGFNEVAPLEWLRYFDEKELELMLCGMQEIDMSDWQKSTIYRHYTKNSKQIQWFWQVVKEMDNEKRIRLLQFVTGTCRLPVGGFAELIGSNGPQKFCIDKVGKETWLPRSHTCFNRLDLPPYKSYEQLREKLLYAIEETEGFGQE
UniProt P38936: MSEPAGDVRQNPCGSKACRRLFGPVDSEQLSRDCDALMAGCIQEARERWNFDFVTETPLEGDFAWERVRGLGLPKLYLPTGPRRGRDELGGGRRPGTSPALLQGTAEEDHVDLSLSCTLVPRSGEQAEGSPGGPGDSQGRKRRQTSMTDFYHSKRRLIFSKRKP

Legend:
[1] = biological target: WWP2 (WW domain-containing E3 ubiquitin protein ligase 2) (human (endogenous in HuH-7)) (UniProt O00308); assay: co-IP; endogenous proteins of HuH-7 cells; NP-40 lysis buffer; target-specific primary antibody (1:100) or control IgG overnight at 4 °C, Protein A/G magnetic beads, three washes with NP-40 buffer; immunoblot
[2] = biological target: WWP2 (WW domain-containing E3 ubiquitin protein ligase 2) (human (endogenous in HuH-7)) (UniProt O00308); assay: as above; remark: listed apart in the source

Molecule | binding [1] | binding [2]
p21 (from UniProt P38936 1-164) | binds | 
CMTM6 (protein, UniProt Q9NX76 1-183) MENGAVYSPTTEEDPGPARGPRSGLAAYFFMGRLPLLRRVLKGLQLLLSLLAFICEEVVSQCTLCGGLYFFEFVSCSAFLLSLLILIVYCTPFYERVDTTKVKSSDFYITLGTGCVFLLASIIFVSTHDRTSAEIAAIVFGFIASFMFLLDFITMLYEKRQESQLRKPENTTRAEALTEPLNA |  | binds
